Data: the supplement of paper PMC12819154, “High-throughput peptide-centric local stability assay extends protein–ligand identification to membrane proteins, tissues and bacteria” (Nature Structural & Molecular Biology, 2025)
The other results are listed elsewhere or left out. Most entries show no effect beyond the scatter of the controls.

Protein sequences, listed by entry. Tags and fused reporters are not part of them. Lines headed by an entry give the natural chain unless they say otherwise; changes in a name come on top.
UniProt Q61153, whole entry: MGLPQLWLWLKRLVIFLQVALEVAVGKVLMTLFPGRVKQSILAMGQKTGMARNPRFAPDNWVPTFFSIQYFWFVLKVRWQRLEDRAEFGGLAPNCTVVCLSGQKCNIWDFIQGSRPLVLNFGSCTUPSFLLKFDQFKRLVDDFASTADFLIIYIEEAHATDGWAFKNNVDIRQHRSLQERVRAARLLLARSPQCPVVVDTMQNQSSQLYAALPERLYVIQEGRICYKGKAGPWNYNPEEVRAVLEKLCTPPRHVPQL
UniProt Q5U4E2: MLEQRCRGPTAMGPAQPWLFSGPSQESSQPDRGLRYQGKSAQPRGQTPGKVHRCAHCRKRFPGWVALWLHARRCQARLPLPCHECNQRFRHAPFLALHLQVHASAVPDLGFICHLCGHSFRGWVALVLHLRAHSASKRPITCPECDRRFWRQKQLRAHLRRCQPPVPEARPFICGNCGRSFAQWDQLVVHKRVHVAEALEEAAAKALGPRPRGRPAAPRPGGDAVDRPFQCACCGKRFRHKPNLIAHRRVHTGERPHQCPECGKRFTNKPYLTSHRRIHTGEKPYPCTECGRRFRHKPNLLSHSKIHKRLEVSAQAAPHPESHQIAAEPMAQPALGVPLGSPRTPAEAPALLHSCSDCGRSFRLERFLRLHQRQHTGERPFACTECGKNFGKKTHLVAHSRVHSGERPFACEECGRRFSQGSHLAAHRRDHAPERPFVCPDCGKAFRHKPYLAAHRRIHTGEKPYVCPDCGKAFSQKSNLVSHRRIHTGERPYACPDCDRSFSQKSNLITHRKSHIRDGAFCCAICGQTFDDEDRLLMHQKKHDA
UniProt Q5FWH2: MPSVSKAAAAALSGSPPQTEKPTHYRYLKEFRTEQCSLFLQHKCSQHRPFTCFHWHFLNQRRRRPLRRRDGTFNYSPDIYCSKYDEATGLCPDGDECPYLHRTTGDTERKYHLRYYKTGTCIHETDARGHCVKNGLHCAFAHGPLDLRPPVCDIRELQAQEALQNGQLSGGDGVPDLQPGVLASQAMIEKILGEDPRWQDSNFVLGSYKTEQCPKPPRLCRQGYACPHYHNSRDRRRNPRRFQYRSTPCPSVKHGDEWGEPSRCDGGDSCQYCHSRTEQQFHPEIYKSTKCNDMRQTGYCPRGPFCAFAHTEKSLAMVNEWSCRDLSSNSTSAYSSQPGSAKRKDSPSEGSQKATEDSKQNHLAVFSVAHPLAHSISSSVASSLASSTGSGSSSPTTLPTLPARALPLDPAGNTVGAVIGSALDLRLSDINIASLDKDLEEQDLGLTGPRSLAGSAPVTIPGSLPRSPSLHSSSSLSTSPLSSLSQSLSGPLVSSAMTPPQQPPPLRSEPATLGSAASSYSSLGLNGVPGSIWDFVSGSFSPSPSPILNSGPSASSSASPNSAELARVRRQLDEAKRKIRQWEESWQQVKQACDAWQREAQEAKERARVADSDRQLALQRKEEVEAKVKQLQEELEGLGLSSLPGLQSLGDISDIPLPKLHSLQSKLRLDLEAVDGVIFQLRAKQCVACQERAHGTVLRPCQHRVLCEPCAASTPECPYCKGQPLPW
UniProt Q60870: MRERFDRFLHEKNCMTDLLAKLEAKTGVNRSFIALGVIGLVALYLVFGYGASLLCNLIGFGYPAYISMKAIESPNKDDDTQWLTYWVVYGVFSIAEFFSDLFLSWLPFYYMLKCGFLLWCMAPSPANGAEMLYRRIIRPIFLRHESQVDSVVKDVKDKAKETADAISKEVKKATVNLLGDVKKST
UniProt Q5F2E7: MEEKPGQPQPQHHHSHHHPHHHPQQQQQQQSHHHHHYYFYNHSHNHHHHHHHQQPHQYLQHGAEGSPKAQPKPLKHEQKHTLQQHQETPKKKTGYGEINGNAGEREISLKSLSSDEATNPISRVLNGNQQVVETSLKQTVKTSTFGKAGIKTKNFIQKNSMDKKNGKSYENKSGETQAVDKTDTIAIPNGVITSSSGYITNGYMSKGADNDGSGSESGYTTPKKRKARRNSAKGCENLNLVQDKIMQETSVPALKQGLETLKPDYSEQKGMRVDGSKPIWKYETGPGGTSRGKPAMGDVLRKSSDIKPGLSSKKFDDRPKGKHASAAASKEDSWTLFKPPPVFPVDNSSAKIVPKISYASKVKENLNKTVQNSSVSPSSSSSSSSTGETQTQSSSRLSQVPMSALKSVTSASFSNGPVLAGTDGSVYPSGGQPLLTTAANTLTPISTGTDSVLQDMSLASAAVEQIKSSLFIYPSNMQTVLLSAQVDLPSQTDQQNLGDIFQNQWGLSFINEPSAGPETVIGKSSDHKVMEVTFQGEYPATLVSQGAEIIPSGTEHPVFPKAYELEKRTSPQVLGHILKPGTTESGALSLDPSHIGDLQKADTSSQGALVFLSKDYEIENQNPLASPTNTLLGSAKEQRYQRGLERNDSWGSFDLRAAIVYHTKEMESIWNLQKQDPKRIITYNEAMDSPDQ
UniProt Q61179: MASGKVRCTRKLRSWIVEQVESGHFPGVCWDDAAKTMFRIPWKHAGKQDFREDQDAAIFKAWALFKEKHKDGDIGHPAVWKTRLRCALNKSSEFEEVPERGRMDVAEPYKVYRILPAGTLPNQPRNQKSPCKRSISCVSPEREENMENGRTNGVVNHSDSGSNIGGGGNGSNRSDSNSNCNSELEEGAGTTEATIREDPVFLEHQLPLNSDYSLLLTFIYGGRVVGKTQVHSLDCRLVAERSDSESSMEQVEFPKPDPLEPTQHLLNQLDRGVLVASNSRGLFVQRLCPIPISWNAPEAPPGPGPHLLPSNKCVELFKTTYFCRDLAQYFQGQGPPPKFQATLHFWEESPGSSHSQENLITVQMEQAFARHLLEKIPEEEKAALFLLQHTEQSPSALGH
UniProt Q60596, whole entry: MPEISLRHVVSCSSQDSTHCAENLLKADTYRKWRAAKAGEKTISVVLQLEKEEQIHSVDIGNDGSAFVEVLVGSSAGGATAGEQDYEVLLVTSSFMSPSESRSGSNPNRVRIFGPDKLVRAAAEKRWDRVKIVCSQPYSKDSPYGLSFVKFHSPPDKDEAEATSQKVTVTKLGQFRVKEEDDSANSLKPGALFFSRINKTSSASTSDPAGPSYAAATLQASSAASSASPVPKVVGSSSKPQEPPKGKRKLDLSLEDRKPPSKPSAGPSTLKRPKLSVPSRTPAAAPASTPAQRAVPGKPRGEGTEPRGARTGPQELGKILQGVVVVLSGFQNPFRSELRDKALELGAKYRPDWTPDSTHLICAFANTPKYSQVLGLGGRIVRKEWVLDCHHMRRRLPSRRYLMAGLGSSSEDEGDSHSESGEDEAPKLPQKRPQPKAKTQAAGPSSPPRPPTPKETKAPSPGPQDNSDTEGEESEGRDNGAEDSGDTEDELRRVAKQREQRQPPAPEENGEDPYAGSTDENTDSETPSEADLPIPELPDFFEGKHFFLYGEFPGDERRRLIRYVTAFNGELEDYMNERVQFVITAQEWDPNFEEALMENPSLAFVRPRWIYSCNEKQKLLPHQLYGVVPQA
UniProt Q61152: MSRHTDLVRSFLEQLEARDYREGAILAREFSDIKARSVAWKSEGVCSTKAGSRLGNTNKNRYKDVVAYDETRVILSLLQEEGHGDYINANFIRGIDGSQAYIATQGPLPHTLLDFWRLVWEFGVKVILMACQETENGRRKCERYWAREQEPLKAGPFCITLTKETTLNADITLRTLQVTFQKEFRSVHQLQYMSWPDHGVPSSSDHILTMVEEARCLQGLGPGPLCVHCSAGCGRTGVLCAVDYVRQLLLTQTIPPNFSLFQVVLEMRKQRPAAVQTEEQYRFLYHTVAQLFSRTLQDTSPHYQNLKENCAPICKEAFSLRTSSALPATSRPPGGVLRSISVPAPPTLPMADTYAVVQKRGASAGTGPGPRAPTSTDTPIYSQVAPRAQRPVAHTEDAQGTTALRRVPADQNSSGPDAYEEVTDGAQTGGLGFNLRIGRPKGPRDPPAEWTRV
UniProt Q60803: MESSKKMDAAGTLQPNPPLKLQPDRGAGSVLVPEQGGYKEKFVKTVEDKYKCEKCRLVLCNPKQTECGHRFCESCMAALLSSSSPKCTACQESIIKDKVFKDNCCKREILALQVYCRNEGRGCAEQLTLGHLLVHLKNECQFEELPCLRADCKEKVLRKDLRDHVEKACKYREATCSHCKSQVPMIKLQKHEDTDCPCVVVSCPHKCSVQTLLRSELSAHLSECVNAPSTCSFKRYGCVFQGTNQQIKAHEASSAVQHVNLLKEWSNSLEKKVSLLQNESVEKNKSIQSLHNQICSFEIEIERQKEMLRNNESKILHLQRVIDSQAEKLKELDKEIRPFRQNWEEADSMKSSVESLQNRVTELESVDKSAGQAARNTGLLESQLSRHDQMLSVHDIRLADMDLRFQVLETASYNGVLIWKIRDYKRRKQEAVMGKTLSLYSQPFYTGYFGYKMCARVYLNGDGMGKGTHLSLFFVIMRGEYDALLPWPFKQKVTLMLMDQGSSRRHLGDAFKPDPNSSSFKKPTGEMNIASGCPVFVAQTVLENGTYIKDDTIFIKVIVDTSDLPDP
UniProt Q61164: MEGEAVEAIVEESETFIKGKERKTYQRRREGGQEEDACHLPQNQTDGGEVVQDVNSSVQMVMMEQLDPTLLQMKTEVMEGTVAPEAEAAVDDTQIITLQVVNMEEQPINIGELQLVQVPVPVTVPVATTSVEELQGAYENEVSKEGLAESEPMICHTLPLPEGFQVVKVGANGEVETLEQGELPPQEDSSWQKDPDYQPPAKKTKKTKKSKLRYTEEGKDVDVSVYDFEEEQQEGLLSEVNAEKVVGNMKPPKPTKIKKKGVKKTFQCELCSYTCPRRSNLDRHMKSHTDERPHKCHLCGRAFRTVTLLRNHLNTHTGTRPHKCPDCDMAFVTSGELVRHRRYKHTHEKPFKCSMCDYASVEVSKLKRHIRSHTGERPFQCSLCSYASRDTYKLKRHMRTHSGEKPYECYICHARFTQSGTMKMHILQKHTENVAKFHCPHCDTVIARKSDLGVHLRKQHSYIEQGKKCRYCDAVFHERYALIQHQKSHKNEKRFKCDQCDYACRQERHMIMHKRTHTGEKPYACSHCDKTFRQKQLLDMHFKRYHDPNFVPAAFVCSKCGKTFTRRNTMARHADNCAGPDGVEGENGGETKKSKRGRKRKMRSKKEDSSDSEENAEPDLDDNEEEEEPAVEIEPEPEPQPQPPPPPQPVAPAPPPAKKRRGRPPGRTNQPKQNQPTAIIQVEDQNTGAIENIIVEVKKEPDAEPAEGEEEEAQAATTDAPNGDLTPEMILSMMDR
UniProt Q61205: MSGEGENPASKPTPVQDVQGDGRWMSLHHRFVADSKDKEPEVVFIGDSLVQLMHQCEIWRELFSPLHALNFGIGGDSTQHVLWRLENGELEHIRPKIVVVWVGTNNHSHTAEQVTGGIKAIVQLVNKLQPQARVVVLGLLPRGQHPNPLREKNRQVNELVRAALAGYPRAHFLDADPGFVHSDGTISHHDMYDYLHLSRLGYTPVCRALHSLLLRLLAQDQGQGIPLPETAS
UniProt Q5M8N0: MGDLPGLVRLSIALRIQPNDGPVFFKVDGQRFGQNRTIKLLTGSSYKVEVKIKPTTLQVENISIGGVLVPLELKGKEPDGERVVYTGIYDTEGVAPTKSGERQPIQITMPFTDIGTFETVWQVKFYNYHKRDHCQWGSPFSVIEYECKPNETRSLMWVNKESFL
UniProt Q60848: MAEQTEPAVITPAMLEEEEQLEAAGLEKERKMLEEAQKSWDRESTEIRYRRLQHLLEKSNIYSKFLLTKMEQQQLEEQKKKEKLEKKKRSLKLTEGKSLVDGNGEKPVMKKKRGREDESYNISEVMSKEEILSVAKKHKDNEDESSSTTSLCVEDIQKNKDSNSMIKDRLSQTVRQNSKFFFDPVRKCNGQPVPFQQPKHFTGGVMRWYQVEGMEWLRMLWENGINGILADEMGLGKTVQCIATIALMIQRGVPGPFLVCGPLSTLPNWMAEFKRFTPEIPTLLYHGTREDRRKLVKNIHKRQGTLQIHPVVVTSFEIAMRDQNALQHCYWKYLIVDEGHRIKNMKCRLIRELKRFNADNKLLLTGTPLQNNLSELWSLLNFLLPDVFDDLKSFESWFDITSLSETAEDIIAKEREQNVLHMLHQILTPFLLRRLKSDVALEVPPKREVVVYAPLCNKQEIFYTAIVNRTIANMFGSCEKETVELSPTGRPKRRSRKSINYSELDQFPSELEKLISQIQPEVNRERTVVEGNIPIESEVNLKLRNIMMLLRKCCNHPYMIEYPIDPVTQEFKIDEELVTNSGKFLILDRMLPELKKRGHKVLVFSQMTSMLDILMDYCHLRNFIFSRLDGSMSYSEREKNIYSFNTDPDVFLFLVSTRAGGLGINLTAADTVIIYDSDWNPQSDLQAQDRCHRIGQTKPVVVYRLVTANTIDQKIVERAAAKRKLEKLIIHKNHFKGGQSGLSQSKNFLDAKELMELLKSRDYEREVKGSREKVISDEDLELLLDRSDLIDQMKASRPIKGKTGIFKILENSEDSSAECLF

Compound: CN[C@@H]1C[C@H]2O[C@@](C)([C@@H]1OC)n1c3ccccc3c3c4c(c5c6ccccc6n2c5c31)C(=O)NC4 [staurosporine]
Experiment: log2 fold change of tryptic peptide abundance, ligand vs vehicle (limited proteolysis) (log2 ratio); higher = more trypsin-susceptible (destabilized)
Conditions: ligand concentration: 20 uM; sample: mouse liver crude lysate; replicate design: treated separately

Question: Which log2 fold change does the source give for “UniProt Q60952 (peptide sequence: LKNEELESERER, peptide start residue: 1382)” here?
Answer: Its log2 fold change is -0.16.

Question: With “UniProt Q60980 (peptide sequence: IEPGIEPQR, peptide start residue: 198)” as the target, how does the log2 fold change read?
Answer: Its log2 fold change is -0.107.

Question: With “UniProt Q61153 (peptide sequence: LYVIQEGR, peptide start residue: 216)” as the target, how does the log2 fold change read?
Answer: The log2 fold change was -0.0823.

Question: For “UniProt Q61160 (peptide sequence: MDGIEEKYPR, peptide start residue: 126)”, which log2 fold change is on record?
Answer: The log2 fold change was 0.241.

Question: “UniProt Q60931 (peptide sequence: LTLDTIFVPNTGKK, peptide start residue: 97)” was tested. Which log2 fold change did it give?
Answer: Its log2 fold change is -0.838.

Question: “UniProt Q5U4E2 (peptide sequence: IHTGEKPYPCTECGRR, peptide start residue: 278)” was tested. Which log2 fold change did it give?
Answer: The log2 fold change was 1.02.

Question: For “UniProt Q61043 (peptide sequence: LQEENSILR, peptide start residue: 1509)”, which log2 fold change is on record?
Answer: Its log2 fold change is 0.0738.

Question: “UniProt Q5FWH2 (peptide sequence: AHGTVLRPCQHR, peptide start residue: 693)” was tested. Which log2 fold change did it give?
Answer: Its log2 fold change is -0.117.

Question: With “UniProt Q60870 (peptide sequence: DKAKETADAISK, peptide start residue: 157)” as the target, how does the log2 fold change read?
Answer: The log2 fold change was -0.323.

Question: How did the log2 fold change turn out when “UniProt Q60680 (peptide sequence: WCHEIQIMK, peptide start residue: 58)” was run?
Answer: Its log2 fold change is 0.664.

Question: With “UniProt Q5Y5T1 (peptide sequence: SIGSNQPFPIKPLSESK, peptide start residue: 330)” as the target, how does the log2 fold change read?
Answer: The log2 fold change was 0.323.

Question: How did the log2 fold change turn out when “UniProt Q61070 (peptide sequence: TFLQDLGR, peptide start residue: 7)” was run?
Answer: The log2 fold change was -0.353.

Question: How did the log2 fold change turn out when “UniProt Q5F2E7 (peptide sequence: LSQVPMSALK, peptide start residue: 397)” was run?
Answer: The log2 fold change was 0.316.

Question: With “UniProt Q61179 (peptide sequence: MDVAEPYKVYR, peptide start residue: 103)” as the target, how does the log2 fold change read?
Answer: Its log2 fold change is -0.405.

Question: Which log2 fold change does the source give for “UniProt Q5EBP3 (peptide sequence: NLADSPQHR, peptide start residue: 218)” here?
Answer: Its log2 fold change is -0.106.

Question: For “UniProt Q60596 (peptide sequence: HFFLYGEFPGDER, peptide start residue: 545)”, which log2 fold change is on record?
Answer: Its log2 fold change is 0.546.

Question: Which log2 fold change does the source give for “UniProt Q61152 (peptide sequence: AQRPVAHTEDAQGTTALR, peptide start residue: 388)” here?
Answer: Its log2 fold change is -0.216.

Question: Which log2 fold change does the source give for “UniProt Q60803 (peptide sequence: VTELESVDK, peptide start residue: 360)” here?
Answer: Its log2 fold change is -0.121.

Question: “UniProt Q5NCC3 (peptide sequence: LEEQAAQLSR, peptide start residue: 353)” was tested. Which log2 fold change did it give?
Answer: The log2 fold change was 0.224.

Question: How did the log2 fold change turn out when “UniProt Q5SWW4 (peptide sequence: FSSVSDGFSTDSTSHHGGK, peptide start residue: 348)” was run?
Answer: The log2 fold change was 0.369.

Question: With “UniProt Q60943 (peptide sequence: RPTPEEQNPS, peptide start residue: 855)” as the target, how does the log2 fold change read?
Answer: The log2 fold change was 0.333.

Question: How did the log2 fold change turn out when “UniProt Q5XJY4 (peptide sequence: VQSYFDGIK, peptide start residue: 126)” was run?
Answer: The log2 fold change was 0.223.

Question: “UniProt Q61103 (peptide sequence: DKPYACDICGK, peptide start residue: 206)” was tested. Which log2 fold change did it give?
Answer: The log2 fold change was 0.466.

Question: With “UniProt Q61164 (peptide sequence: SDLGVHLRK, peptide start residue: 450)” as the target, how does the log2 fold change read?
Answer: Its log2 fold change is 0.276.

Question: For “UniProt Q61205 (peptide sequence: WMSLHHR, peptide start residue: 24)”, which log2 fold change is on record?
Answer: Its log2 fold change is -0.203.

Question: How did the log2 fold change turn out when “UniProt Q61187 (peptide sequence: ELVNLTGTIPVR, peptide start residue: 51)” was run?
Answer: Its log2 fold change is -0.907.

Question: Which log2 fold change does the source give for “UniProt Q5M8N0 (peptide sequence: IQPNDGPVFFK, peptide start residue: 16)” here?
Answer: Its log2 fold change is 0.158.

Question: With “UniProt Q5SUR0 (peptide sequence: GHLLYVPLSPGQHR, peptide start residue: 848)” as the target, how does the log2 fold change read?
Answer: The log2 fold change was -0.782.

Question: “UniProt Q60848 (peptide sequence: KMLEEAQK, peptide start residue: 31)” was tested. Which log2 fold change did it give?
Answer: Its log2 fold change is 0.331.

Question: For “UniProt Q61029 (peptide sequence: PEFLEDPSVLTKDKLK, peptide start residue: 2)”, which log2 fold change is on record?
Answer: The log2 fold change was -0.13.

Question: “UniProt Q5XG71 (peptide sequence: KPAAPVPDAR, peptide start residue: 2043)” was tested. Which log2 fold change did it give?
Answer: The log2 fold change was -0.264.
